Test results reported in the supplement of paper PMC5407854, “Inhibitor of ppGalNAc-T3-mediated O-glycosylation blocks cancer cell invasiveness and lowers FGF23 levels” (eLife, 2017).
The full ranking holds about 1,700 compounds; the median of “T3 sensor activation Q score (MG/GFP ratio z-score vs DMSO controls)” is about 0.25, and the highest 2% start at about 1.9. This is one part of the list.

system: ppGalNAc-T3 sensor; assay: T3 sensor activation Q score (MG/GFP ratio z-score vs DMSO controls) (SD units); higher = more sensor activation (inhibition of ppGalNAc-T3 glycosylation); conditions: HEK293 sensor cells; 10 µM; 6 h
Description: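 Cells were treated with compound at 10 uM for 6 h, then MG/GFP ratio was read by flow cytometry (10,000 cells per well, duplicate wells). Q = (R - R_neg)/SD_neg relative to DMSO vehicle controls; the signal rises when the glycosyltransferase is inhibited.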

SMILES | T3 sensor activation Q score
CN(C)S(=O)(=O)Nc1ccccn1 | 0.55
O=C1C2C3C=CC(CC3)C2S(=O)(=O)C2C3C=CC(CC3)C12 (stereo unspecified) | 0.5
C=CCNC(=S)NCC=C | 0.35
Cc1cccc(NC(=S)Nc2cccc(C)n2)n1 | 0.45
ClN=C1C=CC=CC1=NCl | -0.05
N#CC1=C(Nc2ccccc2Cl)SC(c2ccncc2)NC1=O (stereo unspecified) | 0.1
CN(C)N1C(=O)c2c(Cl)c(Cl)c(Cl)c(Cl)c2C1=O | 0.75
c1ccc(-c2ccc3c(c2)NC(C2Nc4cc(-c5ccccc5)ccc4O2)O3)cc1 (stereo unspecified) | -0.05
Cc1cc(NC(=O)Nc2cc(Cl)ccc2C)no1 | 0.5
Clc1nnc2c3ccccc3ccn12 | 0.05
Cc1nc(N)[nH]c(=O)c1CCCNc1ccc(CCC2(CCl)OCCO2)cc1 | -0.35
O=C1OCC/C1=C\c1ccc(O)cc1 | 0.05
O=C(Cn1ccc(=O)[nH]c1=O)Nc1ccc(C(=O)O)c(O)c1 | 0.45
C=C(C)CN=CC1(C)CCC(C)=CO1 (stereo unspecified) | -0.5
Nc1cccc2c1CN(C1CCC(=O)NC1=O)C2=O (stereo unspecified) | -0.35
c1ccc2sc(SCSc3nc4ccccc4s3)nc2c1 | -1.5
CCCNC(=O)Nc1ccc(C)cc1C | 1.4
S=c1[nH]c2cc(-c3ccccc3)ccc2o1 | 0.8
NC(N)=Nc1nc2ccc([N+](=O)[O-])cc2[nH]1 | -0.35
C(=C\c1ccc(/C=C/c2ccccc2)nn1)/c1ccccc1 | 1.1
Cc1ccc2nc(Cl)cc(=O)n2c1 | 1.45
COc1ccc(C(=S)N2CCN(c3cccc(Cl)c3)CC2)cc1 | -0.25
CCOC(=O)c1nnsc1-c1ccc(-c2snnc2C(=O)OCC)cc1 | 0.95
CNC(=O)Nc1ccc(S(N)(=O)=O)cc1 | 1.6
O=C(Oc1ccc[nH]c1=O)c1cccc(Cl)c1 | 0.35
Nc1nc(Nc2ccccc2)n[nH]1 | -0.55

SMILES | T3 sensor activation Q score
O=C(Nc1ccc2ncccc2c1)Nc1ccc2ncccc2c1 | 0.15
COc1ccc(N=Nc2c(N)n[nH]c2N)cc1 | -0.2
Oc1ccc(N=Nc2nccs2)c(O)c1 | -1.2
Cc1nnc(Cc2ccccc2)c2n[nH]c(C)c12 | 0.2
NNC(=O)CNc1cccc(Br)c1 | 0.75
O=C(Nc1cc(-c2ccccc2)[nH]n1)c1ccc(Cl)cc1 | -0.1
COC(=O)c1c[n+]([O-])ccc1OC | -0.5
COc1ccc(C(=S)N2CCN(c3ccccc3Cl)CC2)cc1OC | 0.75
O=C1C(Cl)=C(O)C2(Cl)C(Cl)=C(Cl)C12Cl (stereo unspecified) | 0.7
Cc1cccc2cc3cccc(C)c3nc12 | -0.55
CCOC(=O)c1cnc(SCC)[nH]c1=O | 0
O=C(NCc1ccco1)Nc1ccc([N+](=O)[O-])cc1 | 0
O=C(O)C1=NN(c2cc(Cl)c(S(=O)(=O)O)cc2Cl)C(=O)C1 | 0.8
NC(=O)c1ncn2c(=O)n(CCCl)nnc12 | 0.6
CC1OC1c1ccc(-c2ccc(C3OC3C)cc2)cc1 (stereo unspecified) | 0.7
CN(C)CCCN1c2ccc3ccccc3c2Sc2cccc(Cl)c21 | -0.4
CC(=O)O[C@H]1CC[C@@]2(C)[C@@H](CC[C@@H]3[C@@H]2CC(=O)[C@@]2(C)[C@H]3C[C@@H]3CC(C)=CC(=O)[C@@H]32)C1 | -1.1
CCCCCCC(C)OC(=O)c1ccccc1C(=O)O (stereo unspecified) | 0.05
Clc1cc2c(c(CSc3nc4ccccc4n4cccc34)c1)OCOC2 | 1.35
O=C(Nc1ccc(Br)cc1)Nc1ccccc1Cl | 1.5
CCC(C)Oc1nc2c(c(=O)n(C)c(=O)n2C)n1C (stereo unspecified) | 0.9
C=CCN(CC=C)C(=O)Nc1cc(OC)ccc1OC | -0.15
COc1ccc(OC(=O)Nc2ccc([N+](=O)[O-])cc2OC)cc1 | -0.7
C[C@]12CC[C@@H]3c4ccc(OCC(=O)O)cc4CC[C@H]3[C@@H]1CCC2=O | -1.05
O=C(Oc1ccccc1)N(c1ccccc1)c1ccccc1 | 0.75
COC(=O)C1=CC(=O)N2CCN=C2S1 | 0.25

Structural class, those above with two or more sulfur atoms
SMILES | T3 sensor activation Q score
c1ccc2sc(SCSc3nc4ccccc4s3)nc2c1 | -1.5
CCOC(=O)c1nnsc1-c1ccc(-c2snnc2C(=O)OCC)cc1 | 0.95

Further entries:

SMILES | T3 sensor activation Q score
COC(=O)CC1OCC=C2CN3CCC45C6=CC(=O)C(=O)C([N+](=O)[O-])=C6NC4C1C2CC35 (stereo unspecified) | -0.2
CCCCCC(=O)N1CCCCC1 | -1.55
CN(C)c1ccc(N=Nc2ccccn2)cc1 | -0.95
N[C@H](C(=O)O)[C@H]1ON=C(Cl)[C@H]1O | -0.15
O=C(/C=C/c1ccccc1)CC(c1ccccc1)N1CCOCC1 (stereo unspecified) | 0.15
Nc1ccn(C2OC(CCl)C(O)C2O)c(=O)n1 (stereo unspecified) | 1.2
O=[N+]([O-])c1ccc(/C=C/c2ccncc2)cc1 | 1.1
Nc1nc2[nH]cc(CCc3ccc(C(=O)N[C@@H](CCC(=O)O)C(=O)O)cc3)c2c(=O)[nH]1 | -0.35
CN(C)C(=O)OCC1COc2ccccc2O1 (stereo unspecified) | -0.85
CCOC(=O)N1CCN(Cc2c(O)ccc3ccccc23)CC1 | -0.95
O=C(C(Cl)Cl)N1CC2CCC(CC2)C1 | 1.4
COc1cc2ncnc(Nc3ccc(F)c(Cl)c3)c2cc1OCCCN1CCOCC1 | 1.2
c1ccc(Nc2cccc3c(Nc4ccccc4)cccc23)cc1 | -0.45
CC1=NC2=CC=CC3=NC(C(Cl)(Cl)Cl)=NC(=N1)N23 | -0.55
C=CCNC(=S)Nc1cccc([N+](=O)[O-])c1 | 0.45
O=c1[nH]nc(-c2cc(-c3ccccc3)nc3ccccc23)o1 | -0.35
S=c1[nH]ccn1-c1c(Cl)cccc1Cl | 0.95
CSc1nc(Cl)cc(=O)[nH]1 | 0.55
CN(C)c1ccc(/C=C/c2ccc3ccccc3n2)cc1 | 0.2
CC(C)NC(=O)c1ccc(C(C)C)cc1 | -0.3
CC/C(=C(\c1ccccc1)c1ccc(OCCN(C)C)cc1)c1ccccc1 | -1.55
CCc1oc2ccccc2c1C(=O)c1cc(Br)c(O)c(Br)c1 | -0.35
C=C(C)C(=O)Nc1ccc(NC(C)C)cc1 | 0.85
Cc1cccc(C)c1NC(=O)Nc1ccc(S(N)(=O)=O)cc1 | 1.6
O=C(c1ccccc1)c1ccccc1C(=O)c1ccccc1 | 1.4
NS(=O)(=O)c1cc2c(cc1Cl)NC(CC1CCCC1)NS2(=O)=O (stereo unspecified) | 0.05

SMILES | T3 sensor activation Q score
CC(C)c1cc(C(F)(F)F)nc(NNc2nc(C(C)C)cc(C(F)(F)F)n2)n1 | -1.85
COc1ccc2[nH]c(-c3ccccc3)cc2c1 | -1.15
CCC12CCCN3CCc4c(n(c5ccccc45)C(O)(C(=O)OC)C1)C32 (stereo unspecified) | 1.8
NC(=O)NC1NC(=O)NC1=O (stereo unspecified) | 1.65
CCCSc1nc2c(c(=O)n(C)c(=O)n2C)n1C | 0.5
Cc1cc2cc3c(=O)[nH]c(=O)[nH]c3nc2cc1C | 0.35
O=C(/C=C/c1ccc(O)c(O)c1)OC1[C@H](O)CC(OC(=O)/C=C/c2ccc(O)c(O)c2)(C(=O)O)C[C@H]1O (stereo partly specified) | 0.55
O=C1c2cccc3cc([N+](=O)[O-])cc(c23)C(=O)N1CCN1CCCC1 | 0.6
CCOc1ccc(/C=C2\NC(=S)NC2=O)cc1 | -1.8
O=[N+]([O-])c1cccnc1Oc1cc(Cl)c(Cl)cc1Cl | 0.75
CC1(C)CC(Nc2ccc(Nc3ccccc3)cc2)CC(C)(C)N1 | 1.85
COc1cc2c(O)cc(C(=O)O)c(-c3cc(OC)c(OC)c(OC)c3)c2cc1OC | -0.25
CSC(=O)NC(=O)NC(=O)c1ccc([N+](=O)[O-])cc1 | 1.45
Cc1nc([C@H]2CC[C@H]3[C@@H]4CCC5=CC(=O)CC[C@]5(C)[C@H]4CC[C@]23C)cs1 | -0.1
Cn1c(C(=O)c2ccncc2)cc2ccccc21 | -0.55
Cc1c(Cl)cccc1NC(=O)CC1Sc2ccccc2NC1=O (stereo unspecified) | 1.1
COc1ccc(C(=S)N2CCN(c3ccccc3C)CC2)cc1 | -0.65
Nc1ccc2c(c1Cl)C(=O)c1ccc(N)c(Cl)c1C2=O | 0.55
CCOC(=O)Nc1cc2c(c(N)n1)N=C(c1ccccc1)CN2 | 4
CC(C)NCC1CCc2cc(CO)c([N+](=O)[O-])cc2N1 (stereo unspecified) | 1.05
CCCc1nc2c([nH]1)c(=O)n(C)c(=O)n2C | -0.95
Cc1nc([N+](=O)[O-])cn1-c1nc2ccccn2c1[N+](=O)[O-] | 0.25
CC1(C)SC(C)(C)N(C=O)C1C(=O)O (stereo unspecified) | -0.2
CCCCCOC(=O)Nc1nc(=O)n([C@@H]2O[C@H](C)[C@@H](O)[C@H]2O)cc1F | 0.7
CC(C)N(Cc1ccccc1)S(=O)(=O)c1n[nH]c(C(C)(C)C)n1 | -0.95
COC1OCC(O)C(NC(=O)N(C)N=O)C1O (stereo unspecified) | 1.4

Three compounds out of the list, arranged by heavy-atom count, largest number first:
SMILES | T3 sensor activation Q score
CCOc1ccc(/C=C2\NC(=S)NC2=O)cc1 | -1.8
NC(=O)c1ncn2c(=O)n(CCCl)nnc12 | 0.6
CCCCCC(=O)N1CCCCC1 | -1.55

(list continues)

SMILES | T3 sensor activation Q score
CCCCNC(=O)Nc1ccccc1CC | 0.85
CCCCn1c(OC(=S)N(CC)CC)cc(C)nc1=S | 1.05
Nc1cc(Nc2ccc(Br)cc2)nc(N)n1 | 0.4
NS(=O)(=O)c1ccc(N=Nc2c(O)c(C(=O)O)cc3ccccc23)cc1 | 1.65
Cc1cc2c(cc1[N+](=O)[O-])NC(CNC(C)C)CC2 (stereo unspecified) | 1.45
COc1nc(N)nc2c1ncn2[C@@H]1O[C@H](CO)[C@@H](O)[C@@H]1O | 0.45
CCn1c(=O)n(C)c2c(=O)n(C)c(=O)n(C)c21 | 1.3
Cc1c(CCO)c(=O)n2n1CCCC2 | -0.55
Oc1ccccc1-c1nc2c3ccccc3c3ccccc3c2[nH]1 | 0.3
CC(C)C(=O)c1ccc(O)c(O)c1 | 0.85
O=C(O)c1cc(O)ccc1N=Nc1ccccc1 | 1.1
CCCCSc1nc(C(=O)O)cc(=O)[nH]1 | -0.95
CN(CCC#N)c1ccc(/C=C(\C#N)c2cccc(C(F)(F)F)c2)cc1 | -0.05
C/C(=N\NC(=S)N1CC2CCC(CC2)C1)c1cnccn1 | -1.2
CCn1c2ccccc2c2c3ncc4cccn4c3ccc21 | -0.8
Cc1nc2sc3c(c2c(=O)[nH]1)CCCC3 | 1
CCOC(=O)c1cnn2c(SC)ncnc12 | 0.8
CCC(C)NC(=S)Nc1ccccc1 (stereo unspecified) | 1.6
O=C1CCC(N2C(=O)c3ccccc3C2=O)C(=O)N1 (stereo unspecified) | 0.95
COc1cc2c(cc1OC)C(=O)Cc1ccc3c(c1CN(C)CC2)OCO3 | 1.5
CCn1c2ccccc2nc2cc3c(cc21)c(Cl)c(=O)c1ccccc13 | 1.45
O=C(Nc1ccc(C2=NCCCN2)cc1)Nc1ccc(C2=NCCCN2)cc1 | -1.5
